The supplement of paper PMC10331698
± gives the standard deviation of the averaged measurements. Small differences around the control level are noise.

Legend:
Assay in all cases: level (log10 ratio to DMSO vehicle control); higher = higher biomarker level / cell amount than vehicle control
[1] = compound: FC(F)(F)C(F)(C(F)(F)F)C(F)(F)C(F)(F)CC1CO1 [3-(Perfluoro-3-methylbutyl)-1,2-propenoxide]; details: in DMSO
Protocol: (§1)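 BioMAP Diversity Plus panel of 12 human primary cell co-culture systems (3C, 4H, LPS, SAg, BT, BF4T, BE3C, CASM3C, HDF3CGF, KF3CT, MyoF, Mphg). Compounds were added 1 h before stimulation and left for 24 h (MyoF 48 h; BT 72 h for soluble read-outs or 6 d for IgG). Biomarkers were read by ELISA, cytotoxicity by SRB, PBMC viability and proliferation by Alamar Blue. Each well value was divided by the mean of 8 DMSO control wells on the same plate and log10 transformed; duplicate blinded samples were tested at 4 concentrations.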

Perfluoro-1-iodohexane = compound: FC(F)(F)C(F)(F)C(F)(F)C(F)(F)C(F)(F)C(F)(F)I [Perfluoro-1-iodohexane]; details: in DMSO
Protocol: as §1

[2] = compound: OCCCC(F)(F)C(F)(F)C(F)(F)C(F)(F)C(F)(F)C(F)(F)C(F)(F)F [7:3 Fluorotelomer alcohol]; details: 2200 nM; in DMSO
Protocol: as §1

[3] = compound: C=CC(=O)OCCC(F)(F)C(F)(F)C(F)(F)C(F)(F)F [2-(Perfluorobutyl)ethyl acrylate]; details: 2200 nM; in DMSO
Protocol: as §1

[4] = compound: FC(F)(I)C(F)(F)C(F)(F)C(F)(F)C(F)(F)C(F)(F)I [1,6-Diiodoperfluorohexane]; details: 2200 nM; in DMSO
Protocol: as §1

[5] = compound: C=CC(=O)OCCC(F)(F)C(F)(F)C(F)(F)C(F)(F)C(F)(F)C(F)(F)C(F)(F)C(F)(F)F [8:2 Fluorotelomer acrylate]; details: 2200 nM; in DMSO
Protocol: as §1

[6] = compound: O=S(=O)(O)C(F)(F)C(F)(F)C(F)(F)C(F)(F)C(F)(F)C(F)(F)F [Perfluorohexanesulfonic acid]; details: 2200 nM; in DMSO
Protocol: as §1

Hexafluoroamylene glycol = compound: OCC(F)(F)C(F)(F)C(F)(F)CO [Hexafluoroamylene glycol]; details: 2200 nM; in DMSO
Protocol: as §1

[7] = compound: O=C(O)C=C(C(F)(F)F)C(F)(F)F [3,3-Bis(trifluoromethyl)-2-propenoic acid]; details: in DMSO
Protocol: as §1

[8] = compound: O=C(Cl)C(F)(F)C(F)(F)C(F)(F)C(=O)Cl [Hexafluoroglutaryl chloride]; details: 2200 nM; in DMSO
Protocol: as §1

[9] = compound: O=S(=O)(O)CCC(F)(F)C(F)(F)C(F)(F)C(F)(F)F [4:2 Fluorotelomer sulfonic acid]; details: 2200 nM; in DMSO
Protocol: as §1

[10] = compound: C=CC(=O)OCC(F)(F)C(F)(F)C(F)(F)COC(=O)C=C [1H,1H,5H,5H-Perfluoro-1,5-pentanediol diacrylate]; details: 2200 nM; in DMSO
Protocol: as §1

[11] = compound: O=C(O)C(F)(F)C(F)(F)C(F)(F)C(F)(F)C(F)(F)C(F)(F)C(F)(F)C(F)(F)C(F)(F)C(F)(F)C(F)(F)C(F)(F)C(F)(F)F [Perfluorotetradecanoic acid]; details: in DMSO
Protocol: as §1

lMphg:CD69
level (log10) ([1]; 740 nM): -0.014 ± 0.014 | level (log10) ([1]; 2200 nM): -0.013 ± 0.0014 | level (log10) (Perfluoro-1-iodohexane; 2200 nM): -0.035 ± 0.067 | level (log10) (Perfluoro-1-iodohexane; 6700 nM): -0.031 ± 0.048 | level (log10) (Perfluoro-1-iodohexane; 20000 nM): -0.0425 ± 0.06 | level (log10) (Perfluoro-1-iodohexane; 60000 nM): -0.031 ± 0.045 | level (log10) [2]: -0.014 ± 0.024 | level (log10) [3]: 0.0085 ± 0.015 | level (log10) [4]: 0.0075 ± 0.047 | level (log10) [5]: -0.0365 ± 0.047 | level (log10) [6]: 0.006 ± 0.03 | level (log10) (Hexafluoroamylene glycol): -0.037 ± 0.028 | level (log10) ([7]; 2200 nM): -0.057 ± 0.034 | level (log10) ([7]; 6700 nM): -0.069 ± 0.024 | level (log10) ([7]; 20000 nM): -0.0915 ± 0.0078 | level (log10) ([7]; 60000 nM): -0.0275 ± 0.067 | level (log10) [8]: -0.008 ± 0.016 | level (log10) [9]: 0 ± 0.0014 | level (log10) [10]: -0.006 ± 0.034 | level (log10) ([11]; 740 nM): 0.008 ± 0.061 | level (log10) ([11]; 2200 nM): -0.052 ± 0.03

CASM3C:CD141/Thrombomodulin
level (log10) ([1]; 740 nM): -0.023 ± 0.011 | level (log10) ([1]; 2200 nM): 0.0175 ± 0.026 | level (log10) (Perfluoro-1-iodohexane; 2200 nM): 0.003 ± 0.016 | level (log10) (Perfluoro-1-iodohexane; 6700 nM): 0.0055 ± 0.015 | level (log10) (Perfluoro-1-iodohexane; 20000 nM): -0.006 ± 0.0028 | level (log10) (Perfluoro-1-iodohexane; 60000 nM): -0.004 ± 0.0028 | level (log10) [2]: -0.0105 ± 0.018 | level (log10) [3]: -0.0175 ± 0.005 | level (log10) [4]: -0.0285 ± 0.049 | level (log10) [5]: -0.0125 ± 0.018 | level (log10) [6]: -0.0175 ± 0.018 | level (log10) (Hexafluoroamylene glycol): 0.019 ± 0.065 | level (log10) ([7]; 2200 nM): 0.006 | level (log10) ([7]; 6700 nM): 0.03 ± 0.0071 | level (log10) ([7]; 20000 nM): 0.0275 ± 0.0064 | level (log10) ([7]; 60000 nM): 0.026 ± 0.0028 | level (log10) [8]: 0.03 ± 0.025 | level (log10) [9]: 0.0075 ± 0.0021 | level (log10) [10]: -0.016 ± 0.023 | level (log10) ([11]; 740 nM): 0.033 ± 0.011 | level (log10) ([11]; 2200 nM): 0.0105 ± 0.035

HDF3CGF:CXCL9/MIG
level (log10) ([1]; 740 nM): 0.007 ± 0.037 | level (log10) ([1]; 2200 nM): 0.008 ± 0.0042 | level (log10) (Perfluoro-1-iodohexane; 2200 nM): -0.01 ± 0.014 | level (log10) (Perfluoro-1-iodohexane; 6700 nM): 0 ± 0.0028 | level (log10) (Perfluoro-1-iodohexane; 20000 nM): -0.021 ± 0.0057 | level (log10) (Perfluoro-1-iodohexane; 60000 nM): -0.0325 ± 0.018 | level (log10) [2]: -0.002 ± 0.041 | level (log10) [3]: 0.0045 ± 0.011 | level (log10) [4]: -0.0005 ± 0.011 | level (log10) [5]: -0.0035 ± 0.00071 | level (log10) [6]: 0.0055 ± 0.026 | level (log10) (Hexafluoroamylene glycol): 0.0015 ± 0.018 | level (log10) ([7]; 2200 nM): -0.0115 ± 0.0078 | level (log10) ([7]; 6700 nM): -0.006 ± 0.0028 | level (log10) ([7]; 20000 nM): -0.0075 ± 0.013 | level (log10) ([7]; 60000 nM): -0.0175 ± 0.015 | level (log10) [8]: 0.002 ± 0.011 | level (log10) [9]: -0.0095 ± 0.019 | level (log10) [10]: -0.663 ± 0.1 | level (log10) ([11]; 740 nM): 0.027 ± 0.02 | level (log10) ([11]; 2200 nM): 0.028 ± 0.016

BT:sIL-17F
level (log10) ([1]; 740 nM): -0.0545 ± 0.057 | level (log10) ([1]; 2200 nM): 0.0525 ± 0.07 | level (log10) (Perfluoro-1-iodohexane; 2200 nM): -0.012 ± 0.016 | level (log10) (Perfluoro-1-iodohexane; 6700 nM): 0.0035 ± 0.015 | level (log10) (Perfluoro-1-iodohexane; 20000 nM): 0.041 ± 0.12 | level (log10) (Perfluoro-1-iodohexane; 60000 nM): 0.0815 ± 0.061 | level (log10) [2]: 0.035 ± 0.098 | level (log10) [3]: -0.099 ± 0.058 | level (log10) [4]: 0.0515 ± 0.087 | level (log10) [5]: 0.025 ± 0.098 | level (log10) [6]: -0.0895 ± 0.1 | level (log10) (Hexafluoroamylene glycol): -0.035 ± 0.0071 | level (log10) ([7]; 2200 nM): -0.146 ± 0.15 | level (log10) ([7]; 6700 nM): -0.258 ± 0.031 | level (log10) ([7]; 20000 nM): -0.426 ± 0.16 | level (log10) ([7]; 60000 nM): -0.672 ± 0.021 | level (log10) [8]: 0.031 ± 0.1 | level (log10) [9]: -0.0075 ± 0.047 | level (log10) [10]: -0.399 ± 0.12 | level (log10) ([11]; 740 nM): -0.0035 ± 0.033 | level (log10) ([11]; 2200 nM): 0.051 ± 0.089
